Publication PMC3747146 (PLoS ONE, 2013)
No constants are given. Whether binding was seen depends on the method and setting. For part of these data: In cells and extracts the contact can be indirect. Some entries that bind do so weakly or less than the wild type. For part of these data: Sequences can lack the tags named with a protein.

Protein sequences, listed by entry. Tags and fused reporters are not part of them. Lines headed by an entry give the natural chain unless they say otherwise; changes in a name come on top. Chains listed by the source or under a name are the forms on record and can include a tag or linker.
UniProt Q9UDY8: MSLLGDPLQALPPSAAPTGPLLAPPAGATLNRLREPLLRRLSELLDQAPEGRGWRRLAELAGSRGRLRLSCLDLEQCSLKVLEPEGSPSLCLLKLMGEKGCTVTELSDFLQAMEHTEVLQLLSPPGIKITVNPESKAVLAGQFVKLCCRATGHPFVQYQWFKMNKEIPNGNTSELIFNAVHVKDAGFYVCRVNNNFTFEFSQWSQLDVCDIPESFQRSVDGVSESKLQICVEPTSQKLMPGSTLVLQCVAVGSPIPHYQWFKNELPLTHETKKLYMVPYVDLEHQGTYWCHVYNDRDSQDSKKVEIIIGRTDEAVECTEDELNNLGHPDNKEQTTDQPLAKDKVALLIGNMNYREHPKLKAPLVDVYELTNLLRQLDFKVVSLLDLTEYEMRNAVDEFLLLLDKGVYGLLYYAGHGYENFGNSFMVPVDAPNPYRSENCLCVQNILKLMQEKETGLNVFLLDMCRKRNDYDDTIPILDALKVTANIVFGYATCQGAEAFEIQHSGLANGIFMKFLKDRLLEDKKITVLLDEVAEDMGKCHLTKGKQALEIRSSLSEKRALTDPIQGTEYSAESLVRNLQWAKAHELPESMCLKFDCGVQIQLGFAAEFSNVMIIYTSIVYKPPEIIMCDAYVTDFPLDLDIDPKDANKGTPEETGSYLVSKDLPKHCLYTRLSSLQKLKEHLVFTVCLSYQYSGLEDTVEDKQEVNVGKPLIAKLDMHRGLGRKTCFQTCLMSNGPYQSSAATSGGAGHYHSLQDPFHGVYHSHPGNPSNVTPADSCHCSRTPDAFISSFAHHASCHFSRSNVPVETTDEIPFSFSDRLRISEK
MALT1(Casp-like) C464A, isolated protease domain (Q9UDY8, form named): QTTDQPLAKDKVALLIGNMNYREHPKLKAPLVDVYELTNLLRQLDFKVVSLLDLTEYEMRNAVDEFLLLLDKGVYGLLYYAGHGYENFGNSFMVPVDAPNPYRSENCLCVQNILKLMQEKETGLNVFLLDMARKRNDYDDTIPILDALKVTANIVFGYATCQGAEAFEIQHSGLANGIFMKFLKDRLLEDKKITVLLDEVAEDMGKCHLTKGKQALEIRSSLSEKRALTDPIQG

Experiments:
[1] = molecular target: MALT1(Casp-like) C464A, isolated protease domain (UniProt Q9UDY8); assay: SEC; data not shown; construct containing only the protease domain, size exclusion chromatography under physiological salt; both purified
[2] = molecular target: Strep-tagged MALT1 E549A (UniProt Q9UDY8); assay: pull-down; Flag-BCL10 and Strep-MALT1 co-expressed in HEK293T cells; StrepTactin sepharose precipitates from lysates (50 mM HEPES pH 7.5, 150 mM NaCl, 1% Triton-X-100), 30 min at 4°C, immunoblot
[3] = molecular target: Strep-tagged MALT1 wildtype (UniProt Q9UDY8); assay: as above

With “MALT1(Casp-like) C464A, isolated protease domain (from UniProt Q9UDY8 333-566) (domain or fragment)” the binding [1] was “binds”.

B1: Flag-tagged BCL10 (protein, UniProt O95999 1-233)
chain: MEPTAPSLTEEDLTEVKKDALENLRVYLCEKIIAERHFDHLRAKKILSREDTEEISCRTSSRKRAGKLLDYLQENPKGLDTLVESIRREKTQNFLIQKITDEVLKLRNIKLEHLKGLKCSSCEPFPDGATNNLSRSNSDESNFSEKLRASTVMYHPEGESSTTPFFSTNSSLNLPVLEVGRTENTIFSSTTLPRPGDPGAPPLPPDLQLEEEGTCANSSEMFLPLRSRTVSRQ
With B1 the binding [2] was “binds” and the binding [3] was “binds”.
